Paper PMC8806762
Results are given in words; binding and its absence hold for the method and conditions named. Binding seen in cells or lysates may run through a third protein. Some results given as binding are weak or reduced against the parent protein; the word gives no strength.

Sequences of proteins named here, by UniProt entry; tags and fusion partners are left off. Residues count along the entry.
UniProt Q15058: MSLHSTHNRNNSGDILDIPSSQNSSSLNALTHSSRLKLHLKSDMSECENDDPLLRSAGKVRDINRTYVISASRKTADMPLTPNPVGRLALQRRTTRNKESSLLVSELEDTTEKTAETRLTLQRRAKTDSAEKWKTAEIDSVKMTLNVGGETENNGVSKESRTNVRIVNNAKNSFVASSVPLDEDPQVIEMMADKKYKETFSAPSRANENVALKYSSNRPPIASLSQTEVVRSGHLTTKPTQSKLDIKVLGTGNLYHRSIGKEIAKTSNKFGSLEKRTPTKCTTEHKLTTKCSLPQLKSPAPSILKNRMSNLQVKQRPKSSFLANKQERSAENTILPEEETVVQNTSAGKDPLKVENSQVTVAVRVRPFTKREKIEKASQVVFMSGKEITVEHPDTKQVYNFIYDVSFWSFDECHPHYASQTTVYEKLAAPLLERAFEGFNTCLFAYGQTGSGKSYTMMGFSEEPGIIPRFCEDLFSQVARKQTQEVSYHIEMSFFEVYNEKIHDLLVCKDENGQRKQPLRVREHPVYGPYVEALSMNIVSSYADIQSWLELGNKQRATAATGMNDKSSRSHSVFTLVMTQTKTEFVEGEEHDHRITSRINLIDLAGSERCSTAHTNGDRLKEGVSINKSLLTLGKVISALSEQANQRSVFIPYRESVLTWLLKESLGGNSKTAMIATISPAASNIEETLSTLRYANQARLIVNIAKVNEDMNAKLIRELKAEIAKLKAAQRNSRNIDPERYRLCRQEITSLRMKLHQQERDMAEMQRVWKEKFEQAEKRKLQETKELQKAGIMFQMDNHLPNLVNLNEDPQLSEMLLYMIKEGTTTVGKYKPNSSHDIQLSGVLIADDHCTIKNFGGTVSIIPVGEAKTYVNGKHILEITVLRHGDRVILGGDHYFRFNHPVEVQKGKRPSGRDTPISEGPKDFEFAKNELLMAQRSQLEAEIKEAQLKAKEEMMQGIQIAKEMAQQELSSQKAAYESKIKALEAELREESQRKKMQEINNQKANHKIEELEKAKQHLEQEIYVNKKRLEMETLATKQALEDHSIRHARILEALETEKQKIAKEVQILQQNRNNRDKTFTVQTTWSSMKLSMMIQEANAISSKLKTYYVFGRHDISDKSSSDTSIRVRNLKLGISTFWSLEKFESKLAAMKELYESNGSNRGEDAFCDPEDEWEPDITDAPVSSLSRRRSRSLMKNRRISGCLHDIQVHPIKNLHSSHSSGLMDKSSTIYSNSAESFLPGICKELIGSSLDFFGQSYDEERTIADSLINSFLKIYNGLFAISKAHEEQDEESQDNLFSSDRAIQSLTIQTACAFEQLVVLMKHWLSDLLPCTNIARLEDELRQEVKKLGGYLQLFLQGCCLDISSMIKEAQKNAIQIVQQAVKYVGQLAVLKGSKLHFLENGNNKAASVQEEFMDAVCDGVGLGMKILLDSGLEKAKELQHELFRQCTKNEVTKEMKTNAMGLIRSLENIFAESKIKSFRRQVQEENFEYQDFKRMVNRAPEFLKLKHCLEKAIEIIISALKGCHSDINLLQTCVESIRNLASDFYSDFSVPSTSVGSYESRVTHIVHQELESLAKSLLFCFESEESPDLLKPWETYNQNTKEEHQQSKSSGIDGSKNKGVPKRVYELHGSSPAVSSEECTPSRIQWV
UniProt O95202, residues 116-739: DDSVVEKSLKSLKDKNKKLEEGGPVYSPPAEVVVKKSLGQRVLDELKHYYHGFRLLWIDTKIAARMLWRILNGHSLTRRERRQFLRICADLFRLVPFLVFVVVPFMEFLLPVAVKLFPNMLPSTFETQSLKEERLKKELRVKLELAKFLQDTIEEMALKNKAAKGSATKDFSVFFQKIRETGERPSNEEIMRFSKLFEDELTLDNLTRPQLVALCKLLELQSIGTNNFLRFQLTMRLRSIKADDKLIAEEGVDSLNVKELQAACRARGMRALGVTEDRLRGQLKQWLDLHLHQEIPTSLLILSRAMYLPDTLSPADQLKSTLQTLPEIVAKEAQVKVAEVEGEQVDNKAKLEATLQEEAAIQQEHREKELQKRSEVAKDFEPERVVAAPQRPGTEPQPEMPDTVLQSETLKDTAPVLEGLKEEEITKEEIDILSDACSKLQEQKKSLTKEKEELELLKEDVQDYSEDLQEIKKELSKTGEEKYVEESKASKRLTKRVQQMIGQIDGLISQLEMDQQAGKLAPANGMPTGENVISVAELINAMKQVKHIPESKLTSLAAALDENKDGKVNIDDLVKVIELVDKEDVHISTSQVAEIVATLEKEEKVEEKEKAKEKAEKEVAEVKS

Key:
[1] = molecular target: Kinesin family member 14 (human (endogenous in TE11)) (UniProt Q15058); assay: co-IP; endogenous proteins of ESCC cell lysate (RIPA); protein A/G agarose beads, 2 h at 4°C; IgG and LETM1 or KIF14 antibodies overnight at 4°C; washed three times with Co-IP buffer; western blot
[2] = molecular target: Leucine zipper-EF-hand-containing transmembrane protein 1 (human (endogenous in TE11)) (UniProt O95202); assay: as above

Substance	binding [1]	binding [2]
Leucine zipper-EF-hand-containing transmembrane protein 1 (from UniProt O95202 116-739)	binds	
Kinesin family member 14 (from UniProt Q15058 1-1648)		binds
